From ChEMBL document CHEMBL3988442, “University of Dundee, Small-Polar-MMV Screening Library” (2021).

Chains of the proteins cited; added tags and fusions are not shown.
UniProt E9BF75, entry or part of it: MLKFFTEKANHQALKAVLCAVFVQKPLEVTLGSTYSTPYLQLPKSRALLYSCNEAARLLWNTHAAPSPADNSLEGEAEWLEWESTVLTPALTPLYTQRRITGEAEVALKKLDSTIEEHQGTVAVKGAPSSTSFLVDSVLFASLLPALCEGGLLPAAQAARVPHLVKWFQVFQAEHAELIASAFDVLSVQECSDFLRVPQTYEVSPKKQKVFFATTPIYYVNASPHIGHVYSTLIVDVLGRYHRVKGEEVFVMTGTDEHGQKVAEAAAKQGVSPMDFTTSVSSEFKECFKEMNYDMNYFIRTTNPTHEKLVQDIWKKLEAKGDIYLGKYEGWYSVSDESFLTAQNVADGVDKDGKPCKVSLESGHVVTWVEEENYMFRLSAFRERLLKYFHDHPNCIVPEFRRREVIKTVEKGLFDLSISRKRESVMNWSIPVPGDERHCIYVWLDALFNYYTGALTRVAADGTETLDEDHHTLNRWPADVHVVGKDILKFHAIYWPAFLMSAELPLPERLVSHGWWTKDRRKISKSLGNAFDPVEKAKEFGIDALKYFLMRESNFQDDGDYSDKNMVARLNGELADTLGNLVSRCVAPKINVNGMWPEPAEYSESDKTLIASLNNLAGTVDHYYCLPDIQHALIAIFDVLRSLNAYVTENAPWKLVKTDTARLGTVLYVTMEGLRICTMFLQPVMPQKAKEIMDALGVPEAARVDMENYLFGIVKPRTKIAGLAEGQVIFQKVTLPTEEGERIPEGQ

LdMetRS: 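Primary screen of methionyl-tRNA synthetase; the read-out is not stated. Target: Methionyl-tRNA synthetase (putative), Leishmania donovani (UniProt E9BF75). The test concentration is not given. The values are filed as inhibition. Size under these conditions: about 68,000 compounds, about 24 of them at 50% or above in at least one test.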
Mtb heat-shock: 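Assay on Mycobacterium tuberculosis, filed only as a heat shock assay from Cornell; the read-out is not stated. The concentration is filed as 10 mM, unlikely as a test dose, so the dose is not known. Higher reads as stronger inhibition (inferred: compounds with an IC50 in retests scored well above the rest). Size under these conditions: about 69,000 compounds, about 930 of them at 50% or above in at least one test.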

Results are percentages, as filed.
The controls that fix the scale are not given in the record; negative values are as filed.
This is an unselected part of the compounds tested.
A dash means the value is not listed here; it may have been measured.

structure,LdMetRS,Mtb heat-shock
CCCn1ccnc1CN1C[C@@H](NC(C)=O)[C@H](c2ccc(OC)cc2)C1,9.375%,30.05%
Cc1ccc(OCc2occc2C(=O)N2CC[C@H](CO)[C@@H](O)C2)cc1,8.683%,-6.535%
CN(C)CCNc1ccc(-c2nc(COc3ccccc3)no2)cn1,11.6%,-6.054%
COc1c(C2CCCN2C(=O)c2cnccn2)c(C)nn1C (centres undefined),13.26%,-11.74%
Cn1ccc2ccc(C(=O)N3CCN(C(=O)OC(C)(C)C)CC3)cc21,19.09%,5.744%
Cn1c(CCCNc2nccnc2C#N)nc2ccccc21,16.4%,-31.6%
CC(C)C(C)NC(=O)c1cccn1Cc1cccnc1 (centres undefined),7.125%,12.42%
CC(C)CNc1nc(C(=O)/N=c2\[nH]nc(C(C)(C)C)s2)cs1,6.667%,29.68%
CCn1c(C(=O)N2CCN(CC(C)O)CC2)cc2ccccc21 (centres undefined),6.883%,-2.804%
CC(C)NC(=O)CN(C1CC1)C(C)C1CC1 (centres undefined),8.967%,0.03287%
c1cn(-c2ccc(CN3CCOC(Cn4cncn4)C3)cc2)cn1 (centres undefined),13.24%,-12.16%
Cc1cc(C(=O)N2CC(O)CO2)c2cccc(C)c2n1 (centres undefined),15.55%,2.339%
O=C(O)C(F)(F)F.[H][C@]12CN(C(=O)c3cc(C)ccn3)C[C@@]1([H])OCCN(S(C)(=O)=O)C2,-,-54.25%
O=S(=O)(NCC1CCCN(Cc2ccccc2F)C1)C1CC1 (centres undefined),9.851%,-9.756%
Cn1cc(N2C[C@@H]3CN(CC4CCOCC4)C[C@@H]3C2=O)cn1,8.271%,-
Cn1nc(C(=O)N2CCOCC2)cc1C(=O)Nc1ncc(Cl)cc1Cl,9.392%,-30.36%
Cc1noc(C)c1CN(C)Cn1c(=O)n(C)c2ccccc21,15.49%,17.9%
CNC(=O)C1CCN(S(C)(=O)=O)CC1,14.74%,10.62%
[H][C@@]12C[C@@H](c3noc(C)n3)O[C@]1([H])CN(Cc1scnc1C)C2,-,-12.02%
[H][C@]12CN(Cc3ccsc3)CC[C@@]1(O)CCN(C(=O)COC)C2,-,1.04%
c1ccc2c(N3CCOC(Cn4cccn4)C3)ncnc2c1 (centres undefined),12.81%,-30.58%
O=C(NCc1ccc2c(c1)OCO2)[C@@H]1C=CCN1c1ncccn1,5.249%,22.69%
NCCC(=O)N1CCC2(CC1)CN(C(=O)Cc1ccc(Cl)cc1)CCO2,16%,-27.2%
CS(=O)(=O)c1cn[nH]c1C1CCCCN1C(=O)Cc1cccnc1 (centres undefined),0%,-14.29%
Cc1nn(C)c2nc(N(Cc3nccs3)C3CC3)sc12,16.72%,-17.88%
O=C(O)c1ccn(-c2ccccc2NS(=O)(=O)c2ccccc2)n1,13.66%,15.47%
Cc1nnc2n1CCN(C(=O)c1ccc(Cn3cccc3)cc1)C2,25.26%,23.06%
COCCN1CCc2cc(C(=O)O)c(NCC3CC3)nc2CC1,4.061%,-
CC(C)C(Sc1nccn1C1CC1)C(=O)NCc1cccnc1 (centres undefined),14.53%,-10.65%
Cc1nc(CN(C)CC2CCCN2c2cccnn2)oc1C (centres undefined),4.467%,30.25%
CN(C)CCCNCC1CCOC(C)(C)C1 (centres undefined),9.492%,-36.16%
CNc1cc(N2CCCC2CNCc2ccc(Cl)o2)ncn1 (centres undefined),26.67%,-29.48%
CN1C(=O)C2(CC(=O)Nc3c2cnn3C(C)(C)C)c2ccccc21 (centres undefined),10.2%,-16.89%
COc1cccc(-c2n[nH]cc2CNC2CCN(C3CC3)CC2)c1,16.57%,-
Cc1cc(C(=O)NCCN2CCCC(C)C2)nn1C(C)(C)C (centres undefined),12.38%,-18.13%
Cc1noc(C)c1CN1Cc2nccn2CC(CN2CCOCC2)C1 (centres undefined),12%,-
O=C(O)C(F)(F)F.[H][C@@]12CCN(CC3CCOCC3)[C@@]1([H])CCN2C(=O)c1ccc(F)cc1,-,1.914%
Cc1noc(CCCC(=O)NCC2CCS(=O)(=O)C2)n1 (centres undefined),7.831%,-18.8%
COc1cccc(CC(=O)N2CCCC(n3nc(C)cc3C)C2)c1 (centres undefined),17.75%,-16.84%
CC(C(=O)NCc1ccc(N2CCNC(=O)C2)cc1)c1cccs1 (centres undefined),10.54%,2.927%
CN(C)CCOCC1CN(C(=O)c2cccn2C)Cc2ccnn2C1.O=C(O)C(F)(F)F.O=C(O)C(F)(F)F (centres undefined),-,-20.31%
CN1CC(C(=O)NCc2ccnc(-n3cccn3)c2)CC1=O (centres undefined),13.72%,-5.63%
CC[C@@]1(O)CCN(C(=O)c2ccc(-c3ccco3)cc2)C[C@H]1O,17.02%,4.076%
CCOC(=O)C1CC2(CCCC2)N2CCC(=O)N12 (centres undefined),9.041%,5.712%
Cc1nc(C)n(C2CCCN(C(=O)c3cnc[nH]3)C2)n1 (centres undefined),7.19%,6.021%
Cc1ccc2c(c1)C1(CCN(C(N)=O)CC1)CN2C(=O)N(C)C,7.302%,4.246%
c1ccc(CN(Cc2ncc[nH]2)Cc2nccs2)cc1,8.869%,-4.636%
COCCN1CCN(C(=O)c2ccc(COC)o2)[C@H]2CS(=O)(=O)C[C@H]21,8.052%,-
Cc1noc([C@@H]2C[C@H](NC(=O)C3CCCCC3)CN2C)n1,1.695%,-42.33%
COCCN1C(=O)[C@H]2CC[C@@H]1CN(c1nccc(C)n1)C2,8.675%,-
O=C(O)C(F)(F)F.O=C(O)C(F)(F)F.[H][C@@]12CCN(c3ncccn3)[C@]1([H])CC[C@@H](C(=O)NCc1cccnc1)O2,-,-7.289%
O=C(NCCN1C(=O)CCC1=O)c1nc2ccccc2c(=O)[nH]1,19.88%,-2.154%
c1ccc(CN2Cc3nccn3CC(Cn3cccn3)C2)nc1 (centres undefined),19.74%,-
CCN(CC)CCNc1ncc(-c2cc(C)no2)c(-c2ccoc2C)n1,16.78%,-23.17%
CN(Cc1cnn(C)c1)C(CO)c1cccc(Br)c1 (centres undefined),6.805%,-11.74%
Cc1cnc(C(=O)N2CCCC(c3nccn3Cc3cscn3)C2)cn1 (centres undefined),16.05%,11.27%
CCc1nc(N)nc(NCCC(=O)N2CCCC2)c1C,3.484%,-20.68%
Cc1ccc(CC(=O)NCC(Cc2ccc(F)cc2)C(N)=O)cn1 (centres undefined),18.03%,6.328%
Cc1ccc(-c2nc(CSCCC(=O)NC(N)=O)co2)cc1,18.38%,7.663%
CN(C)CCN(C(=O)Cc1ccc2c(c1)OCCO2)C1CCN(C)CC1.O=C(O)CC(O)(CC(=O)O)C(=O)O,-,-33.14%
[H][C@@]12CCN(C(=O)c3ccsc3)C[C@]1(c1nc(C)no1)CCO2,-,-5.703%
Cc1cc(OCc2ccc(C(=O)O)s2)ccc1Cl,-5.276%,-10.88%
Cc1cccc(CN2CCC3(CC2)CN(c2cnn(C)c2)C(=O)CO3)n1.O=C(O)C(F)(F)F,-,-22.92%
COC(=O)N1CCCCC1C(=O)N1CCC(c2ccncc2)CC1 (centres undefined),14.29%,-7.572%
O=C(CCC1CCCC1)NCCn1nc(C2CCNC2)c2nccnc21 (centres undefined),-2.397%,-

Once more, the final 7:

| structure | LdMetRS | Mtb heat-shock |
|---|---|---|
| `Cc1ccc(-c2nc(CSCCC(=O)NC(N)=O)co2)cc1` | 18.38% | 7.663% |
| `CN(C)CCN(C(=O)Cc1ccc2c(c1)OCCO2)C1CCN(C)CC1.O=C(O)CC(O)(CC(=O)O)C(=O)O` | - | -33.14% |
| `[H][C@@]12CCN(C(=O)c3ccsc3)C[C@]1(c1nc(C)no1)CCO2` | - | -5.703% |
| `Cc1cc(OCc2ccc(C(=O)O)s2)ccc1Cl` | -5.276% | -10.88% |
| `Cc1cccc(CN2CCC3(CC2)CN(c2cnn(C)c2)C(=O)CO3)n1.O=C(O)C(F)(F)F` | - | -22.92% |
| `COC(=O)N1CCCCC1C(=O)N1CCC(c2ccncc2)CC1` (centres undefined) | 14.29% | -7.572% |
| `O=C(CCC1CCCC1)NCCn1nc(C2CCNC2)c2nccnc21` (centres undefined) | -2.397% | - |